# In patent publication US20100286200A1, “COMBINATION OF METFORMIN AND AN MTP INHIBITOR” (JANSSEN PHARMACEUTICA NV, priority 2008, published 2010):
# System: subjects with type 2 diabetes mellitus undergoing metformin treatment
# Experiment: Proof-of-concept 12-week double-blind, randomized, placebo-controlled study of the MTP inhibitor in subjects on metformin treatment
# Assay type: in vivo, human
# Source text: Proof-of-concept study of combinations of metformin and the MTP inhibitor (+)-phenyl-(4-{4-[(4′-trifluoromethyl-biphenyl-2-carbonyl)-amino]-phenyl}-piperidin-1-yl)-acetic acid methyl ester
# Safety and efficacy of the MTP inhibitor (+)-phenyl-(4-{4-[(4′-trifluoromethyl-biphenyl-2-carbonyl)-amino]-phenyl}-piperidin-1-yl)-acetic acid methyl ester in the treatment of subjects with type 2 diabetes mellitus undergoing metformin treatment has been investigated. Three dosing regimens of the MTP inhibitor, 5-10-15 mg bid, were compared to placebo in a double-blind, randomized, parallel-group study design of 12 weeks wherein all subjects were following metformin treatment. All subjects remained on a calorically appropriate, low fat (≦30%) diet, being in accordance with the local practice guidelines for the treatment of type 2 diabetes.
# Subjects randomized into the study had to have type 2 diabetes for at least 3 months and remained on a stable metformin monotherapy for at least 2 months. There were 88, 84, 91 and 89 patients randomized to placebo, 5 mg, 10 mg and 15 mg BID. Mean age was 55 years and there were slightly more males than females randomized into the study (males:females—54%:46%).
# The mean baseline glycosylated hemoglobin (HbA1c) was 7.8±0.8% (mean±SD) and the mean plasma glucose was 9.1±1.80 mmol/L (mean±SD). The majority (68%) of subjects had HbA1c levels≦8%.
# Mean weight at baseline was 94.9 kg and varied between 92.8 kg and 96.7 kg in different treatment groups, while the mean baseline BMI was 32.8 kg/m^2.
smiles,measurement,setting,value
"COC(=O)C(c1ccccc1)N1CCC(c2ccc(NC(=O)c3ccccc3-c3ccc(C(F)(F)F)cc3)cc2)CC1 (single isomer, unassigned; (+)) [(+)-phenyl-(4-{4-[(4′-trifluoromethyl-biphenyl-2-carbonyl)-amino]-phenyl}-piperidin-1-yl)-acetic acid methyl ester]",proportion of subjects who withdrew from the study,5 mg bid,7%
same,proportion of subjects who withdrew from the study,10 mg bid,18%
same,proportion of subjects who withdrew from the study,15 mg bid,13%
